Over roughly 33,000 sequences, “E-score (-0.5 to 0.5)” has its median near -0.0014; the highest 2% begin near 0.25. The list shows a part of the results.
molecular target: T1, Cad1 (UniProt P24813); test: PBM E-score (8-mer binding enrichment) (E-score (-0.5 to 0.5)); higher = stronger / more preferred TF binding; settings: protein concentration: 100 nM; construct: GST-full length
T1 sequence: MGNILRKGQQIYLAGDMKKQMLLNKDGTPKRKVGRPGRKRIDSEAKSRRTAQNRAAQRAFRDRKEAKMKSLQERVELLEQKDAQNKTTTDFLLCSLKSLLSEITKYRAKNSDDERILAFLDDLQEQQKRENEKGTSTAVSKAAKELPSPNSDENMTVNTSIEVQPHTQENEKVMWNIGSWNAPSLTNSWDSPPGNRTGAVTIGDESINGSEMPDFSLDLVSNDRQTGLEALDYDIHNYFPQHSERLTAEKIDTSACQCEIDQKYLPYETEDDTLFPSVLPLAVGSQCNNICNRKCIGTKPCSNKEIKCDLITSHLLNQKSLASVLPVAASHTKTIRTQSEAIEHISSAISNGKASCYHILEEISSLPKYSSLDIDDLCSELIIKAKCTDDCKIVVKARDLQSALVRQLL
Method in brief: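 For each ungapped eight-base word taken together with its reverse complement, the Universal PBM Analysis Suite assigned an E-score. Binding data came from GST-tagged yeast transcription factors, applied at about 100-200 nM, on universal all-10-mer Agilent arrays made double-stranded by primer extension. Fluorescent anti-GST marked bound protein, and scans were normalised with masliner.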

Sequence	PBM E-score
AAGCCATC	0.0891
GAACACAA	-0.0302
ATCGCGCA	0.0635
GTCATCAC	0.111
AATATTAG	0.213
GCCTCTCC	-0.304
TCCTTAGA	-0.0941
CACGTCCA	-0.149
AGACCTGA	0.0374
ATTAGTTA	0.362
CAGCCGAC	-0.0946
TAGGGAGA	-0.104
AGGCGTGC	-0.0381
ATTCAGTG	0.0362
AGACTATC	-0.0211
ACAGTAGG	-0.158
AGCGCACG	0.237
CGTCAGTA	-0.0374
AAAACGAG	0.0463
AGGTTTAA	-0.0294
GAGGGAGC	-0.25
CCGGCGAG	0.125
TGATATAA	-0.0984
ACTGCTTG	-0.214
ACTACAGA	0.154

Sequence	PBM E-score
ATCCCCTG	-0.289
CCACTAGG	-0.253
AATACCGC	0.0597
CTTCATAA	0.163
CGACAACA	0.117
ATTTTCCA	0.209
GGTCGCAC	0.051
GGGTCCTA	-0.202
ACTTCCAT	0.141
CATTGACC	0.0957
GAGCTACC	-0.011
GCTGTGCC	-0.0355
CCAATAAG	-0.101
ACGCCTTA	-0.172
GTATCCGA	0.11
CCACGGAA	0.235
GAAGTCGC	0.022
TGCCCGAA	-0.0712
GAGAAGCC	-0.106
CGTGAACC	-0.0667
AGAGGATG	0.00349
AACACAGG	-0.0364
GGTATCGA	0.171
CTAATGCC	-0.0404
ACCTCACG	0.0697

Sequence	PBM E-score
GCCTCTTA	0.0813
GTAACAAA	0.15
CACTGACC	-0.111
CTCTCAAC	-0.189
AGTTCGAA	0.168
CTTCGGTA	-0.142
AGACAAAT	0.125
CTTCGCTA	0.0327
TCAGAGAA	-0.0244
CGATTACC	0.064
AGGCTAAG	-0.113
ACCGTATC	-0.0258
CATATAAG	0.00934
AGATTTGG	-0.13
CCGACTCG	-0.0729
TACATCAA	-0.00492
CACAACCA	0.14
AATTCTGC	0.142
GAGTGGGC	-0.294
AAGCGGCG	0.0379
CCATCAAC	0.0658
AACAGAGA	-0.0618
ATGGGGCC	-0.384
CTATGTTC	0.0922
CAATGAAG	-0.0666

Sequence	PBM E-score
AATAGTAT	0.137
ACACTAGC	0.0926
AACTTATT	0.142
AACGGTTA	-0.0521
GCCAGCGA	-0.149
AGACCACT	-0.0474
AATAAGTC	0.108
AAATACAA	0.0875
CGGGGGTC	-0.297
AACTGTAG	0.0438
AAGTATCC	0.0184
CGGACACG	0.0197
CGACGAGA	0.0652
CCGGCTCG	0.0853
CATGAAAA	0.14
GGGAACCC	-0.0657
CACTTCGC	0.00138
GCCTGTAC	0.12
CATCTGCA	0.047
GGATCCCC	-0.247
CTTGGCCC	-0.417
GTGCTACA	-0.169
GTTGCCCA	0.188
AGCTTGTG	0.0925
ACGTGGAA	0.1

Sequence	PBM E-score
CCTCTGGC	-0.0622
AGGGAGAC	-0.212
TTCGAAAA	0.163
AGGATGAG	-0.063
ATTTAGCA	0.128
TAGCAGAA	0.0503
ACCAAGAA	0.116
CGCGAATC	0.0895
ATACTCCC	-0.0818
AAGTAGTA	0.141
AACACTGA	0.234
CTATTGCC	-0.149
GCAGAGCC	-0.203
CGGCGTGC	-0.178
GGGCTAAC	-0.113
AACTCATC	0.0929
CCGAAACC	-0.11
ACTCCATG	-0.123
CACGCTAG	-0.0624
CCGTTCAA	0.0261
AACGGAAG	0.114
GTAATCCA	0.277
AGAATCAA	0.0466
CTATCCAC	-0.0192
AGCCCTAA	-0.0989

Sequence	PBM E-score
ACACACGA	-0.0386
CGACTATA	-0.0508
ATACTGCA	0.0912
CGCCACTC	-0.0665
CAGATCAG	0.0663
ACTGGATC	-0.0601
CGTTCCTA	0.00668
AAATGAAT	-0.0684
AGATAATA	-0.019
AAAGCGCC	-0.0664
GAGGTGCA	0.0843
AGAGAAAT	0.0896
AAACGTGG	-0.108
AAGGCTCT	-0.237
CACTCACC	-0.205
AGAAGAAT	-0.0672
AGTCCCCC	-0.437
ATGTCCCC	-0.107
CCTTTGGA	-0.166
ATTACTTC	-0.0817
CTTATATC	0.0947
AGGATAGA	-0.0415
CCTAATCA	0.115
AGATCCCC	-0.176
CTCTTAAA	0.222

Sequence	PBM E-score
ATGGCATA	0.0437
AGTCTCGG	-0.0898
AGCCCATG	-0.00466
ACGCTAAT	0.0761
CAGGACGG	-0.0398
ACAGTGCT	0.0829
ATCTCAAT	-0.0587
ACGAACTC	0.192
ATATGTCG	0.0385
ATTTAAAC	0.109
AGTCACTG	0.0505
GGCTGGAC	-0.232
CTCCTTAA	-0.194
TAACCTTA	-0.0788
AATATACA	0.0965
GGTGGTGA	-0.0135
CGTGTTCA	0.112
TTGGCAAA	0.121
ACCATGAT	-0.0821
CTAGTCAA	-0.095
GGGTAGAC	-0.191
CGGCCAAG	-0.0515
ATCTCACC	0.0699
ACATCCTC	-0.124
ACCTTGAC	-0.0199

Sequence	PBM E-score
CTCTTGCA	-0.0966
TAATGGCA	0.0744
AGTCTCCA	-0.107
CTCCGCGA	0.113
CGCTCGCC	0.111
CCGATGAG	0.0417
CCGAATCC	0.115
CCATTGCC	-0.0498
GCTCAAGA	-0.255
CTGTATTC	0.112
GGTGTGTA	-0.0108
AAGCAATG	0.129
GCGACGAA	0.0483
ACGTAAAA	0.116
CCTTTAAA	-0.188
AAGAGATT	0.0855
TAAGGCTA	-0.0214
CCGCACGC	0.00426
ACCTTACA	0.0057
CCCTTGTC	-0.116
GGAGATAA	0.0145
ATAGTGCC	0.023
AGGAACCG	-0.0309
CACGCGAC	-0.0843
CGCGCATA	0.0311

Individual results from the entries so far.
Value for CACGCGAC under PBM E-score: -0.0843
Value for CCTTTAAA under PBM E-score: -0.188
Value for CTGTATTC under PBM E-score: 0.112
Value for CGCTCGCC under PBM E-score: 0.111
Value for TAATGGCA under PBM E-score: 0.0744
Value for ATAGTGCC under PBM E-score: 0.023
Value for GGTGTGTA under PBM E-score: -0.0108

Remaining list, next part

Sequence	PBM E-score
AGGACGAT	-0.00359
GGACGGTA	-0.0373
CCTCTGGA	-0.172
ACATAAGG	0.187
GCCTGTCA	0.00179
ATCGGAAT	0.206
AGTTGAAG	-0.0031
CCGCAGCC	-0.132
CACATAAC	-0.0202
ACACCCTA	0.0759
AAGCAACC	0.0395
CCGTTCGC	-0.0602
AACTGACG	-0.0709
ATCCGACG	0.0868
AGAGCGCT	0.1
AACACATC	0.0909
GGTTACTA	0.0723
GCATGTGA	0.015
CGACAGCA	0.0252
GACATGCA	-0.13
ATGGGTCG	-0.0602
GTCGCATA	0.115
ACCTGAGT	0.0744
AGGCCTTC	-0.0154
CGACCTTC	-0.0438

Sequence	PBM E-score
GATCTCGA	0.181
ACTGGCAG	-0.128
AGATACAG	0.0445
ACACGCAG	-0.157
GGGATAAA	0.168
CCCTCGCA	-0.0841
GGTCAAAC	-0.0442
GCAACTGA	0.161
GCTCAGAA	-0.0445
GTCGGAAC	-0.0456
AGGATCCC	-0.144
GCTCCTAA	-0.162
ACGCCTGC	-0.173
GCATCCGC	-0.00028
CCTTTTGC	-0.223
ACTTTAAG	0.104
TATTAGGA	0.177
AAACAGAA	0.0706
CCTCACTA	-0.0425
ATCGGCCC	-0.00956
CTCATACA	0.0928
CGGCGTAA	0.116
AATTCCAA	0.0834
CTTCCAGA	-0.0786
GCATATTA	0.141

Sequence	PBM E-score
AGTCGTAG	0.0922
GCGTTTCC	0.00132
CAACGCTC	-0.00505
CAGAGGAG	-0.207
CCTTGGCC	-0.294
ATTGGCCG	-0.0152
CCTTTCAC	-0.0212
TACAGGAA	0.143
CTACCTTA	-0.0649
ATGATTCG	0.0287
GAGTTCTA	-0.0249
AGCGTGAT	0.0917
GTACGTCA	-0.0733
CAGACGCC	0.0512
AGGCGAAG	-0.102
CCGCCCAA	-0.0315
ATTTGCAG	0.071
GCGTTCCA	0.00756
AGAACCAG	-0.0228
GGTTCAAA	-0.00859
ATTAAGTG	0.0416
CGCACCAG	0.079
CGTATCCC	-0.143
CAGGAATC	0.136
TATAATGA	0.0357

Some of the entries so far, in markdown.

| Sequence | PBM E-score |
| --- | --- |
| GCGTTTCC | 0.00132 |
| CCTTGGCC | -0.294 |
| CTACCTTA | -0.0649 |

Later entries:

Sequence	PBM E-score
ATTTCATC	0.146
GCGCGGGA	0.131
GCGCCACC	-0.166
ATCTGTGG	-0.156
GCAGCAGA	0.0805
GCGTTACA	0.0567
GAAAAAGA	0.142
ATTCCGGA	0.254
GCAAAAAA	0.209
ATAATCCG	0.119
GTTTTCTA	0.225
GCCCTGTA	0.0929
AGTACTTC	0.101
GGTACACA	-0.0387
CACAGATG	-0.0298
CTAGGTTC	-0.112
CGTGCGGA	0.0975
AATCCGTG	-0.115
CAGGAGAA	0.18
ACCCAGAC	0.0577
ACATTCTC	0.0691
ACACCGCG	-0.019
CCTGTGAG	-0.0161
GAACCGGC	-0.143
CCTTATCA	0.257

Rewritten bar-delimited: part of the list above
Sequence | PBM E-score
GCGCGGGA | 0.131
CGTGCGGA | 0.0975
CCTTATCA | 0.257

Later entries.

Sequence	PBM E-score
AATCGGCT	0.0275
GCCCATCC	-0.201
TACTAACA	0.236
CGGCGGCC	-0.0816
CATTGTGC	-0.0206
CAGGGCAG	0.0366
AGTATTCG	0.0629
CAAAGTTC	-0.0988
CTTATTAA	0.42
AATTCTAA	0.0775
CTTGTTGA	0.0639
ACATTGCT	-0.0105
TGGGGAAA	0.0555
CGGTCCTA	-0.137
GGATTCAA	0.0187
CCTAAATC	0.118
CATAAAAA	0.15
CAGCATAA	0.169
AAACATCG	0.0586
AACACCTT	0.043
TAGCCACA	0.112
TCTTCCAA	0.0298
GACGAGGC	-0.0866
GAATACTA	0.168
ATAGGTTA	-0.042

Sequence	PBM E-score
GACGTTCC	-0.0301
AGTAGACT	-0.0304
ATGAACGC	0.252
GTCGAAAC	-0.00792
GGTTGTAC	-0.0362
CAAAAATA	0.237
CACTTCGA	0.0204
CTACAGGC	-0.247
ATAGCGTC	-0.0472
GCCACGCC	-0.171
GATTCAGC	0.092
CCAAATCC	-0.158
ACATTTCC	0.0781
GCGAGGGA	-0.144
ACATGTTG	0.102
CTATCCGA	0.13
CAGACTGG	-0.148
CCACATCC	-0.0199
TCCTATAA	-0.0943

Source: the supplement of paper PMC3334620
